Results are given in words; binding and its absence hold for the method and conditions named. For some assays here: Binding seen in cells or lysates may run through a third protein. Some entries that bind do so weakly or less than the wild type. Tags and fused reporters may be left off the sequences shown.
Tests used:
[1] = target: T1, ICAM-3-Fc chimera (human) (UniProt P32942); test: ICAM-3Fc fluorescent bead adhesion to DC
T1 sequence (looked up): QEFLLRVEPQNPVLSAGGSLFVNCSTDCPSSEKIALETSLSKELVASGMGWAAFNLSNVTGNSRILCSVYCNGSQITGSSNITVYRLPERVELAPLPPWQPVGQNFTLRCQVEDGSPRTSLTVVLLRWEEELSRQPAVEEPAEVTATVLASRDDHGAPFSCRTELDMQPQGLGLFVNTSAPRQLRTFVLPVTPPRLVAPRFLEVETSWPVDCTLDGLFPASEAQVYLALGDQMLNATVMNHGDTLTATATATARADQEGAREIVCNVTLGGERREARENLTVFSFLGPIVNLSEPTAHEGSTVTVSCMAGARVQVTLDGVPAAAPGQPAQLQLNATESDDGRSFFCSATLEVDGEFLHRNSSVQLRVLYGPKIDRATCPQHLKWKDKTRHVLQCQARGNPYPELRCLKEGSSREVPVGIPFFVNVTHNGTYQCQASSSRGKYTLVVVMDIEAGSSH

The chains behind the UniProt entries cited, without tags or fusion partners. Where a name states a change or a piece, a line headed by the entry shows the natural chain unless it says otherwise.
UniProt Q9NNX6: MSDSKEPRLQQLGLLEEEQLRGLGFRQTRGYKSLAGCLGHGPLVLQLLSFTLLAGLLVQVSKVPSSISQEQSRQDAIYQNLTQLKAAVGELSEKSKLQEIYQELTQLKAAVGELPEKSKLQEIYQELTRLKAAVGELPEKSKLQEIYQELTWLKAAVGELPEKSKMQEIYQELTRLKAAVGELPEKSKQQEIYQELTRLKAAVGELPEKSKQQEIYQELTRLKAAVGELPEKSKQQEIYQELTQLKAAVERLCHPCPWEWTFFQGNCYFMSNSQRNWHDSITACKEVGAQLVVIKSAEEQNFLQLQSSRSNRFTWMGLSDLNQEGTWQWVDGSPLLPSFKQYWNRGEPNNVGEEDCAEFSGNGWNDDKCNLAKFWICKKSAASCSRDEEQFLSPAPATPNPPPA

[2] = target: T1, ICAM-3-Fc chimera (human); test: ICAM-3Fc bead adhesion to COS7-DC-SIGN (FIG. 4B)
[3] = target: T1, ICAM-3-Fc chimera (human); test: ICAM-3 bead adhesion to DC (FIG. 6A)
[4] = target: T1, ICAM-3-Fc chimera (human); test: pull-down from DC lysate with ICAM-3-Fc coated beads (results not shown)
[5] = target: T1, ICAM-3-Fc chimera (human); test: ICAM-3Fc fluorescent bead adhesion to COS7 transfectants

Measured: binding

DC-Specific ICAM-3 Grabbing Non-integrin (DC-SIGN) (from UniProt Q9NNX6 1-404) (receptor)
binds: [1] | [2] | [3] | [4] | [5]

From US7148329 (KATHOLIEKE UNIVERSITEIT NIJMEGEN, dated 2006)
